Source: PubChem BioAssay AID743121 (NCATS, 2013)
Purpose: 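Partners whose loss is lethal together with topoisomerase I blockade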 (primary screen). Cell system: MDA-MB-231 cells, a human breast cancer line. Knock-down reagent: single siRNA against human genes, 20 nM siRNA (0.8 pmol per well). Time to read-out: 120 h (drug added 48 h after transfection, read 72 h later). Challenge: camptothecin 20 nM (about EC30) for 72 h; vehicle 0.1% DMSO in parallel plates. Measurement: 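Cell viability by ATP luminescence (CellTiter-Glo) as % of non-targeting siRNA wells, and the log2 ratio of viability without drug over viability with camptothecin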. Scale: log2 vehicle/camptothecin viability: higher = stronger sensitisation to camptothecin; viability with camptothecin and viability without drug: higher = more viable cells. Hit rule: 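Active genes have an RSA gene-level p-value below 0.001, computed from the ratios of their separate siRNAs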.
The deposit covers about 26,000 reagents; below is a part drawn at random. 167 of them (0.63%) were called active. 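Calls are per gene from RSA p-values that are not deposited; an individual active-marked siRNA can sensitise only weakly.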 The numbers tell different reagents against one gene apart.

| gene symbol | siRNA no. | log2 vehicle/camptothecin viability | viability with camptothecin (% of control) | viability without drug (% of control) | Outcome |
| --- | --- | --- | --- | --- | --- |
| CDH5 (cadherin 5) | 1 | 0.0059 | 39.6 | 39.8 | inactive |
| CDH5 (cadherin 5) | 2 | -0.187 | 124 | 108 | inactive |
| CDH5 (cadherin 5) | 3 | -0.103 | 115 | 107 | inactive |
| CDH5 (cadherin 5) | 4 | 0.0695 | 88.2 | 92.6 | inactive |
| POR (cytochrome p450 oxidoreductase) | 1 | -0.226 | 59.5 | 50.9 | inactive |
| POR (cytochrome p450 oxidoreductase) | 2 | -0.358 | 86.7 | 67.6 | inactive |
| POR (cytochrome p450 oxidoreductase) | 3 | -0.08 | 93.3 | 88.2 | inactive |
| POR (cytochrome p450 oxidoreductase) | 4 | -0.0897 | 93 | 87.4 | inactive |
| SLC20A2 | 1 | -0.392 | 73.5 | 56 | inactive |
| SLC20A2 | 2 | -0.299 | 64.7 | 52.6 | inactive |
| SLC20A2 | 3 | -0.0467 | 51.3 | 49.6 | inactive |
| SLC20A2 | 4 | -0.039 | 85.1 | 82.9 | inactive |
| GPR143 (G protein-coupled receptor 143) | 1 | 0.404 | 24.4 | 32.3 | inactive |
| GPR143 (G protein-coupled receptor 143) | 2 | -0.437 | 43.6 | 32.2 | inactive |
| GPR143 (G protein-coupled receptor 143) | 3 | 0.4 | 53.4 | 70.5 | inactive |
| GPR143 (G protein-coupled receptor 143) | 4 | -0.31 | 96.9 | 78.2 | inactive |
| KCNMB4 | 1 | -0.267 | 82.7 | 68.7 | inactive |
| KCNMB4 | 2 | -0.0742 | 66.4 | 63.1 | inactive |
| KCNMB4 | 3 | -0.248 | 88 | 74.1 | inactive |
| KCNMB4 | 4 | -0.444 | 42 | 30.9 | inactive |

Only “log2 vehicle/camptothecin viability” (3 entries from above):
GPR143 (G protein-coupled receptor 143) #3	0.4
GPR143 (G protein-coupled receptor 143) #4	-0.31
KCNMB4 #1	-0.267

Further entries:
| gene symbol | siRNA no. | log2 vehicle/camptothecin viability | viability with camptothecin (% of control) | viability without drug (% of control) | Outcome |
| --- | --- | --- | --- | --- | --- |
| MEX3C (mex-3 RNA binding family member C) | 1 | -0.414 | 97.8 | 73.4 | inactive |
| MEX3C (mex-3 RNA binding family member C) | 2 | -0.0724 | 99.4 | 94.5 | inactive |
| MEX3C (mex-3 RNA binding family member C) | 3 | -0.059 | 92.5 | 88.8 | inactive |
| MEX3C (mex-3 RNA binding family member C) | 4 | -0.11 | 109 | 101 | inactive |
| RAB44 (RAB44, member RAS oncogene family) | 1 | -0.286 | 79.3 | 65 | inactive |
| IFNA1 (interferon alpha 1) | 1 | -0.079 | 90.1 | 85.3 | inactive |
| IFNA1 (interferon alpha 1) | 2 | 0.132 | 76.6 | 83.9 | inactive |
| IFNA1 (interferon alpha 1) | 3 | -0.0856 | 96 | 90.5 | inactive |
| IFNA1 (interferon alpha 1) | 4 | -0.275 | 109 | 90.2 | inactive |
| IFNA1 (interferon alpha 1) | 5 | -0.166 | 77.4 | 69 | inactive |
| IFNA1 (interferon alpha 1) | 6 | -0.199 | 88.1 | 76.8 | inactive |
